Assay results as given in US20090227683A1, “Compositions for Providing an Analgesic Effect to the Skin” (priority 2008, published 2009).

System: Albino male CD-1 mice (neurogenic inflammation induced by Resiniferatoxin)
Test: Resiniferatoxin neurogenic inflammation model in the mouse ear (ear edema)
Assay type: in vivo
Settings: summary of Tables 2 to 4
Excerpt: Neurosensory inflammation, also referred to as neurogenic inflammation, is a type of inflammation triggered by sensory nerve activation in skin. Certain natural substances that act on vanilloid receptors cause sensory nerves (C-fibers) to release inflammatory neuropeptides. In mouse skin, an edema response occurs rapidly upon application of a vanilloid receptor activator, such as capsaicin or resiniferatoxin (RTX).
Albino male CD-1 mice, 7-9 weeks old, were used. […] A 20-μL volume of Resiniferatoxin (0.05%) prepared in acetone was applied to the left ears (7 mice per treatment group). The right ear was not treated. Test agents were prepared in a 70% ethanol/30% propylene glycol vehicle and applied to the left ear (20 μL) immediately after resiniferatoxin challenge. The percent inhibition was calculated by comparing treatments to resiniferatoxin alone. Anti-neurogenic inflammation effects of compounds are evident as an inhibition of the increase in ear weight.

## CCN(CC)CC(=O)Nc1c(C)cccc1C [Lidocaine, reference compound]
  inhibition of the neurogenic inflammatory response to resiniferatoxin, in words: active
